Data: patent US20090048324A1
These are yes or no findings as the source states them, for the method shown. Some binding calls cover weakened binding; strength is not graded here.

Columns and labels:
[1] = target: pea (Pisum sativum) porphobilinogen synthase (Pisum sativum (pea)) (UniProt P30124); assay: two-dimensional native PAGE, no incubation between the dimensions
[2] = target: pea (Pisum sativum) porphobilinogen synthase (Pisum sativum (pea)) (UniProt P30124); assay: native gel electrophoresis of pea PBGS with rising EDTA
[3] = target: pea (Pisum sativum) porphobilinogen synthase (Pisum sativum (pea)) (UniProt P30124); assay: native PAGE, first dimension, Coomassie stained
[4] = target: pea (Pisum sativum) porphobilinogen synthase (Pisum sativum (pea)) (UniProt P30124); assay: two-dimensional native PAGE, gel incubated with 10 mM ALA and 10 mM Mg2+ at 37 C for 20 min between the dimensions
[5] = target: pea (Pisum sativum) porphobilinogen synthase (Pisum sativum (pea)) (UniProt P30124); assay: native PAGE (12.5% PhastGel) of pea PBGS at 1 mg/mL after 30 min with morphlock-1 (small molecule)
[6] = target: pea (Pisum sativum) porphobilinogen synthase (Pisum sativum (pea)) (UniProt P30124); assay: two-dimensional native PAGE, gel incubated in 0.1 M BTP pH 8.5, 37 C, 20 min between the dimensions
[7] = target: pea PBGS variant C326A (Pisum sativum (pea)) (UniProt P30124); assay: native gel electrophoresis (12.5% acrylamide) of pea PBGS C326A
[8] = target: pea PBGS variant C326A (Pisum sativum (pea)) (UniProt P30124); assay: native gel electrophoresis

Measured: binding

B1: pea (Pisum sativum) porphobilinogen synthase (enzyme, Pisum sativum (pea), UniProt P30124 69-398, looked up)
chain: SLPIQRRPRRNRRSPALRSAFQETTLSPANFVYPLFIHEGEEDTPIGAMPGCYRLGWRHGLLEEVAKARDVGVNSVVLFPKIPDALKTPTGDEAYNEDGLVPRSIRLLKDKYPDLIIYTDVALDPYSSDGHDGIVREDGVIMNDETVHQLCKQAVAQARAGADVVSPSDMMDGRVGAMRVALDAEGFQHVSIMSYTAKYASSFYGPFREALDSNPRFGDKKTYQMNPANYREALTEMREDESEGADILLVKPGLPYLDIIRLLRDNSPLPIAAYQVSGEYSMIKAGGALKMIDEEKVMMESLLCLRRAGADIILTYFALQAARTLCGEKR
binds: [1] | [2] | [3] | [4] | [5] | [6]

B2: pea PBGS variant C326A (enzyme, Pisum sativum (pea), UniProt P30124 69-398, looked up)
chain: SLPIQRRPRRNRRSPALRSAFQETTLSPANFVYPLFIHEGEEDTPIGAMPGCYRLGWRHGLLEEVAKARDVGVNSVVLFPKIPDALKTPTGDEAYNEDGLVPRSIRLLKDKYPDLIIYTDVALDPYSSDGHDGIVREDGVIMNDETVHQLCKQAVAQARAGADVVSPSDMMDGRVGAMRVALDAEGFQHVSIMSYTAKYASSFYGPFREALDSNPRFGDKKTYQMNPANYREALTEMREDESEGADILLVKPGLPYLDIIRLLRDNSPLPIAAYQVSGEYSMIKAGGALKMIDEEKVMMESLLCLRRAGADIILTYFALQAARTLAGEKR
binds: [7] | [8]
